Consider 65 compounds from the supplement of paper PMC12578635.

± gives the standard deviation of the averaged measurements. The list shows a part of the results. Most values come without repeats; read them as rough.

This assay concerns RAW 264.7 macrophages infected with S. aureus JE2-lux. The experiment in a line: host macrophage viability (CellTiter-Fluor) relative to DMSO vehicle; higher = more viable host cells. The following applies: 10 µM; treatment time 4 h; gentamicin 50 µg/ml.
As for `O=C(CSCc1nc(O)c2nnn(Cc3ccc(F)cc3)c2n1)Nc1cccc2ccccc12`, the host macrophage viability worked out at 101%.

Consider `Cc1ccc(Cl)cc1N1CCN(C(=O)c2cnc(N3CCCCC3)c3ccccc23)CC1`, for which the host macrophage viability turned out to be 122%.

Take `O=C(Cn1cnc2c(cnn2-c2ccc(F)cc2)c1=O)Nc1cccc([N+](=O)[O-])c1`: the host macrophage viability stood at 88.1 ± 5.3%.

For `CCOC(=O)C(=O)NCC(c1ccco1)S(=O)(=O)c1ccccc1` (stereo not given), the host macrophage viability amounted to 116%.

Consider `COC(=O)c1cc(N/N=C2\C=CC(=O)c3ccccc32)cc(C(=O)OC)c1`, for which the host macrophage viability is 120%.

As for `Cc1cc(N(C)C)nc(N2CCN(C(=O)c3ccc(F)cc3)CC2)n1`, the host macrophage viability worked out at 115%.

Regarding `O=C(Cn1nc(C(F)(F)F)c2cccn2c1=O)NC1CCCC1`, the host macrophage viability was 120%.

On to `O=C(NCc1cccnc1)C(=O)Nc1cc2c3c(c1)CCC(=O)N3CCC2`, for which the host macrophage viability was 114%.

Turning to `O=C(CCCN1C(=O)S/C(=C/c2ccccc2)C1=S)Nc1ccc(C(=O)O)cc1`, the host macrophage viability came out at 84.4%.

In the case of `Cc1cc(NC2CCCCC2)n2c(nc3ccccc32)c1C#N`, the host macrophage viability came out at 136%.

Take `Cc1cc(C)c(NC(=O)c2sc3nc4c(cc3c2N)C(=O)CC(C)(C)C4)c(C)c1`: the host macrophage viability was determined as 123%.

As to `O=C(NCc1ccccc1)c1nn(-c2ccccc2)c2nc[nH]c(=O)c12`, the host macrophage viability came out at 92.6%.

Regarding `O=C1C=C/C(=N/Nc2ccc3c(c2)OCO3)c2cccnc21`, the host macrophage viability worked out at 90.4%.

Take `O=CC1CSc2[nH]c(=O)sc2C1c1ccc(OCc2ccccc2)cc1` (stereo not given): the host macrophage viability was determined as 114%.

For the compound `CCOc1cccc2c1Oc1nc(-c3ccc(OC)c(OC)c3)[nH]c(=O)c1C2`, the host macrophage viability came to 131%.

Turning to `CCOc1ccc2nc(-n3nc(C)c4c3NC(=O)CC4c3cnn(CC)c3)sc2c1` (stereo not given), the host macrophage viability worked out at 119%.

With `Cc1sc2nc(SCC(=O)Nc3c[nH]c(=O)[nH]c3=O)[nH]c(=O)c2c1C`, the host macrophage viability turned out to be 123%.

In the case of `O=C(CCN1C(=O)/C(=C/c2ccc(Cl)cc2Cl)SC1=S)Nc1cccnc1`, the host macrophage viability came to 95.8%.

Regarding `CCOC(=O)c1cc(-c2ccccn2)c(N2CCOCC2)s1`, the host macrophage viability was found to be 111%.

For the compound `Cn1c(SCC(=O)NCC2CCCO2)ncc(C(=O)Nc2ccccc2)c1=O` (stereo not given), the host macrophage viability worked out at 113%.

Consider `Cc1c(NC(=O)c2ncoc2-c2ccc(F)cc2)c(=O)n(-c2ccccc2)n1C`, for which the host macrophage viability worked out at 135%.

As to `Cc1ccc(-c2ocnc2C(=O)N2CCN(c3ncccn3)CC2)cc1`, the host macrophage viability is 113%.

Consider `O=C(CCCS(=O)(=O)c1ccccc1)Nc1nc2c(Cl)ccc(Cl)c2s1`, for which the host macrophage viability turned out to be 118%.

Regarding `Cc1ccc(NS(=O)(=O)c2ccc3c(c2)C(=O)c2ccccc2C3=O)c(C)c1`, the host macrophage viability came out at 114%.

Consider `O=C(Nc1ccc(NC(=O)c2cccc3nccnc23)cc1)c1ccccn1`, for which the host macrophage viability came out at 118%.

For `CC(C)(C)C1CCc2c(sc3nc(CN4CCN(C(=O)c5ccco5)CC4)[nH]c(=O)c23)C1` (stereo not given), the host macrophage viability amounted to 121%.

In the case of `Cc1ccc(-c2noc3c(=O)n(CCC(=O)Nc4nc5ccc(C)cc5s4)cnc23)cc1`, the host macrophage viability was 77.6%.

On to `Cc1ccccc1C(NC(=O)c1[nH]c2ccccc2c1C)c1ccncc1` (stereo not given), for which the host macrophage viability was 108%.

`Cc1cc2c(o1)CCc1sc(N(C)C(=O)Cc3ccccc3F)nc1-2`: the host macrophage viability turned out to be 104%.

For the compound `Cc1ccccc1C(=O)n1nc(-c2ccccc2)nc1N`, the host macrophage viability turned out to be 92.6%.

Regarding `Cc1nc(-c2cccc(NS(=O)(=O)c3ccc4ccccc4c3)c2)cs1`, the host macrophage viability worked out at 119 ± 11%.

Take `Cc1cccc(C(=O)Nc2cnc(N3CCN(c4ncnc5ccccc45)CC3)c(C(=O)O)c2)c1`: the host macrophage viability is 88.4%.

Regarding `Cc1ccc(-c2csc(NC(=O)CSc3nncc(=O)[nH]3)n2)cc1`, the host macrophage viability is 108%.

With `Cc1n[nH]c(C)c1S(=O)(=O)NCCOc1ccc(-c2cccs2)nn1`, the host macrophage viability turned out to be 111%.

Take `Cc1c(C)n2c(SCC(=O)NCC3CCCO3)nnc2[nH]c1=O` (stereo not given): the host macrophage viability is 110%.

With `CN(CCCC(=O)Nc1nccs1)S(=O)(=O)c1ccc(Cl)cc1`, the host macrophage viability amounted to 113%.

Take `COc1ccc(-c2n[nH]c3nc(-c4ccc(F)cc4)cc(C(=O)NC(C)c4ccccc4)c23)cc1` (stereo not given): the host macrophage viability was found to be 129%.

As to `O=C(Nc1c2c(nn1-c1ccc(Cl)cc1)CS(=O)(=O)C2)c1ccc(Cl)cc1Cl`, the host macrophage viability was determined as 117%.

Turning to `COc1ccc2c(c1)cc(C)c1nn(CC(=O)Nc3cccc(C(C)=O)c3)c(=O)n12`, the host macrophage viability was 111%.

Regarding `O=C(Cn1cnc2ccccc21)Nc1ccccc1`, the host macrophage viability amounted to 105.5 ± 0.12%.

`CCCCNC(=O)CSc1nc(-c2ccc(C(C)C)cc2)no1`: the host macrophage viability was 101%.

For the compound `COc1cccc(NC(=O)Cn2c(=O)cc(C)c3c(C)nn(-c4ccccc4)c32)c1`, the host macrophage viability is 108%.

As for `CC(=O)NC(=O)c1cc2cc(Br)ccc2o/c1=N\c1ccc(F)cc1`, the host macrophage viability turned out to be 104%.

For `Cc1ccnc(NS(=O)(=O)c2ccc(NC(=O)c3cc(-c4cccs4)on3)cc2)n1`, the host macrophage viability worked out at 124%.

With `COc1ccc(C(=O)NN2C(=O)c3ccccc3C2=O)cc1`, the host macrophage viability came out at 114%.

In the case of `COc1cccc(NC(=O)CSc2nc(-c3ccccc3)no2)c1`, the host macrophage viability was found to be 121%.

For the compound `COc1cc2c(cc1OC)C(c1cc3cc(C)ccc3[nH]c1=O)N(C(=O)Nc1ccccc1)CC2` (stereo not given), the host macrophage viability is 106%.

Take `COc1ccc(C2C3=C(CCCC3=O)Nc3[nH]c(=O)[nH]c(=O)c32)cc1` (stereo not given): the host macrophage viability was 128%.

For `CCOc1ccc(-n2c(C)c(C)n3c4c(=O)[nH]c(=O)n(C)c4nc23)cc1`, the host macrophage viability was 118%.

As to `O=C(Nc1ccccc1Br)c1csc2c1CCCC2`, the host macrophage viability was 102 ± 8.9%.

Consider `Cc1ccc(-n2nc3ccc(NC(=O)C(C)NS(=O)(=O)c4ccc(C)cc4)cc3n2)cc1` (stereo not given), for which the host macrophage viability came out at 109%.

Consider `COC(=O)c1ccccc1NC(=O)Nc1c(-c2ccncc2)[nH]c2c(Cl)cccc12`, for which the host macrophage viability was 87.1%.

As to `NC(=O)c1cc2ccccc2o/c1=N\c1ccc(Cl)cc1Cl`, the host macrophage viability was 94.8%.

On to `CCS(=O)(=O)c1cccc(C(=O)Nc2nc3c(C)ccc(Cl)c3s2)c1`, for which the host macrophage viability was found to be 145%.

For `CN1C(=O)CC(Sc2ncccc2C(=O)O)C1=O` (stereo not given), the host macrophage viability was determined as 115%.

On to `O=C(Cn1cnc2c(nnn2-c2cccc(F)c2)c1=O)N1CCN(c2ccccc2)CC1`, for which the host macrophage viability came out at 117%.

Turning to `Cc1ccc(SCCCC(=O)Nc2cccc3c2C(=O)NC3=O)cc1`, the host macrophage viability is 95.9%.

Regarding `COc1ccc(-c2csc(NC(=O)CSc3nncn3N)n2)cc1`, the host macrophage viability is 114%.

Regarding `O=C(NC1CCCCC1)C(c1ccc(O)cc1)N(C(=O)c1cnccn1)c1cccc(F)c1` (stereo not given), the host macrophage viability was determined as 103%.

As for `CCc1ccc2c(c1)cc(CN(C(=S)Nc1cccc(C)c1C)C1CC1)c1nnnn12`, the host macrophage viability is 114%.

`COc1cccc(-c2cc(C(F)(F)F)n3nc(C(=O)N4CCCC4c4cc(C)on4)cc3n2)c1` (stereo not given): the host macrophage viability was found to be 112%.

As to `COc1ccccc1NC(=O)CSc1nnc(-n2nc(C)cc2C)c2ccccc12`, the host macrophage viability came out at 106%.

Take `CCN1C(=O)c2cccc3c(NC(=O)c4ccc(Cl)s4)ccc1c23`: the host macrophage viability turned out to be 146 ± 14%.

Consider `Cc1nccn1CC(=O)N/N=C/c1ccc(O)c(O)c1`, for which the host macrophage viability amounted to 105%.

As to `COc1ccc2[nH]cc(CCNC(=O)CN3C(=O)S/C(=C\c4ccc(F)cc4)C3=O)c2c1`, the host macrophage viability came out at 115%.
